These results are taken from article doi:10.1101/144360 (bioRxiv, 2017).

Amino acid sequences for entries named in this document (tags omitted). A change or cut given only in a name is not applied to a line headed by its entry. Residues count along the entry.
UniProt O74653, 698-808: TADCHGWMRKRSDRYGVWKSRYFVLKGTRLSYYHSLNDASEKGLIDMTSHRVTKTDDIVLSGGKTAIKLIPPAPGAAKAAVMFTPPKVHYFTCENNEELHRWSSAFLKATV
UniProt P38261, 121-141: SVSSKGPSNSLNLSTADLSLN
UniProt P38261, whole entry: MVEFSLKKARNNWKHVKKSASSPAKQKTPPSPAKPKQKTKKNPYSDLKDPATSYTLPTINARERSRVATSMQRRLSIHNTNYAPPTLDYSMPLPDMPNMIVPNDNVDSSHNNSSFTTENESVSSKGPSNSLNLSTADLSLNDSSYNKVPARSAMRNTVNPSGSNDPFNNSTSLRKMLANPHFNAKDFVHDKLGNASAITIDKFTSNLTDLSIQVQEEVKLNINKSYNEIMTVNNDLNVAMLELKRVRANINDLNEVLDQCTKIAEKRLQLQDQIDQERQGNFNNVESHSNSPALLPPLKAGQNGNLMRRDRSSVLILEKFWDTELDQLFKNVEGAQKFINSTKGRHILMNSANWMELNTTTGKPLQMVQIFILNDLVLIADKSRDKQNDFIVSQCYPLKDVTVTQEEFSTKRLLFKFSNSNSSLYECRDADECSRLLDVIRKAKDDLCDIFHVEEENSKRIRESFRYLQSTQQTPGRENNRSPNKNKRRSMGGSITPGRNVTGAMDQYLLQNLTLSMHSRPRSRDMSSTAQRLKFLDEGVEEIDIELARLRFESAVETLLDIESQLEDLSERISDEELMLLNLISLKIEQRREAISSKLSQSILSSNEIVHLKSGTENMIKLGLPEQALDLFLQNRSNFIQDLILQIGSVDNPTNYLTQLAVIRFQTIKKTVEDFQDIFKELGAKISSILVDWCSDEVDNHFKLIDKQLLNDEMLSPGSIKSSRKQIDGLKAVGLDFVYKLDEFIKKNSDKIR
UniProt P30619, whole entry: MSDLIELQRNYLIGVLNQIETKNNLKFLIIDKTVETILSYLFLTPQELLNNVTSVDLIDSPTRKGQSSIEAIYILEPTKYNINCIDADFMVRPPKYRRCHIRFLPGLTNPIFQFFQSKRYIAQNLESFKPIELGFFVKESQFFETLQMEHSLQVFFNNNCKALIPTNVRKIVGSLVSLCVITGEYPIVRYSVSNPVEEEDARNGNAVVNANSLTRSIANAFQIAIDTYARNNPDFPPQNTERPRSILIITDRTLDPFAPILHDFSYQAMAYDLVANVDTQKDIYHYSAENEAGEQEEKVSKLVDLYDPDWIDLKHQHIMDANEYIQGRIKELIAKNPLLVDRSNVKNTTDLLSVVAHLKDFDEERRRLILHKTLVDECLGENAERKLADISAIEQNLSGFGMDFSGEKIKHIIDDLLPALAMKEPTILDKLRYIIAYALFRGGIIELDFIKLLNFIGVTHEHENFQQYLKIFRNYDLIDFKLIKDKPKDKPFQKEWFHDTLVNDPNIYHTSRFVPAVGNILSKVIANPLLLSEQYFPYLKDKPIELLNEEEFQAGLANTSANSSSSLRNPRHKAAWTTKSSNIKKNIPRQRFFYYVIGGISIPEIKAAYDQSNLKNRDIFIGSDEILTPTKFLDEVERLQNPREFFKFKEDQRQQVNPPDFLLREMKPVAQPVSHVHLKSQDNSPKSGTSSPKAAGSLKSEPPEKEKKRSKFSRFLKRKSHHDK
UniProt P33332, 481-521: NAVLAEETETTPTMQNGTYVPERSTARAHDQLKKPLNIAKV

In assay [1] the target is 6xHis-Cdc42_(G12V) (S. cerevisiae) (UniProt P19073). Briefly: SEC. A general note: Size exclusion chromatography separates by hydrodynamic size, large species first.
Assay [2] deals with GST-PH_(Boi1) (S. cerevisiae) (UniProt P38041). Briefly: pull-down.
In assay [3] the target is GST-PH_(Boi1RLT) (S. cerevisiae) (UniProt P38041). Briefly: pull-down.
Assay [4] deals with GST-PH_(SpBoi) (S. pombe) (UniProt O74653). Briefly: pull-down.
In assay [5] the target is 6xHis-Exo84_(121-141)-AGT (S. cerevisiae) (UniProt P38261). Briefly: SEC.
Assay [6] addresses T1, GST-SH3_(Boi1) (S. cerevisiae) (UniProt P38041).
T1 sequence: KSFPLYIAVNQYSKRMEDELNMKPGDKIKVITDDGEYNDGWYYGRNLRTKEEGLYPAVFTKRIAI
Briefly: pull-down.

Assay [7] deals with T2, GST-SH3_(Boi2) (S. cerevisiae) (UniProt P39969).
T2 sequence: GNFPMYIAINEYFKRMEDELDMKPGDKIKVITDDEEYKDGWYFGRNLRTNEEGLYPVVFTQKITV
Briefly: pull-down.

The target in assay [8] is 6xHis-Sec1p (S. cerevisiae) (UniProt P30619). Briefly: SEC.
In assay [9] the target is GST-PH_(Boi2) (S. cerevisiae) (UniProt P39969). Briefly: pull-down.
Assay [10] addresses 6xHis-Sec3_(481-521)-AGT (S. cerevisiae) (UniProt P33332). Briefly: SEC.
Another assay concerns the target Exo84CRU (S. cerevisiae) (UniProt P38261). Briefly: split reporter.
A further assay concerns the target T3, Boi1CRU (S. cerevisiae) (UniProt P38041).
T3 sequence: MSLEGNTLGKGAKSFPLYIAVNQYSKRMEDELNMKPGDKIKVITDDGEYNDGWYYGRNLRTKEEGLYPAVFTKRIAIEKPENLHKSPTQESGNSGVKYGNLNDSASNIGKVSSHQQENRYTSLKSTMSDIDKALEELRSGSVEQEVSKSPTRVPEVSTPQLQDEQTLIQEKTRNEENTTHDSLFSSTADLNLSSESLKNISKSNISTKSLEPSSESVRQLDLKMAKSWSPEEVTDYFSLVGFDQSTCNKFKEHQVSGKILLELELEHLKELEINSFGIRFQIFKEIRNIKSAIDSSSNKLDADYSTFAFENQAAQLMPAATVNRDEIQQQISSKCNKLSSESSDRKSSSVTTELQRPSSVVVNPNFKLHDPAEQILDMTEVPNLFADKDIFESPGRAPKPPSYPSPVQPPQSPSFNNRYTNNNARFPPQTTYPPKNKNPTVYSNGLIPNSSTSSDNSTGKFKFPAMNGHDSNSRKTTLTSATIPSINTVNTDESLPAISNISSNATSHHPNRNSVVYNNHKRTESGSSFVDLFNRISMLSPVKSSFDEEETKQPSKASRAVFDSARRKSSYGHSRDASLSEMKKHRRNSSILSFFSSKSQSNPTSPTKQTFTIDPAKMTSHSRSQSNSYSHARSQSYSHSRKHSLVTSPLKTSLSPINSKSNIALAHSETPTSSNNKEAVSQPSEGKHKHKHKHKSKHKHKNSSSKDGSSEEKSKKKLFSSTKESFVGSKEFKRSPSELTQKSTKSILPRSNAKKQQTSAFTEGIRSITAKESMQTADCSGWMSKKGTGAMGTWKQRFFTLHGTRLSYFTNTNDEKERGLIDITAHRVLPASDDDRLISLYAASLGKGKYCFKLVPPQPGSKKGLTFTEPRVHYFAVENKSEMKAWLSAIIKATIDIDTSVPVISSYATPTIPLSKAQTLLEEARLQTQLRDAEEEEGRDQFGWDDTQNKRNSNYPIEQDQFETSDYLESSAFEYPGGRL
Briefly: split reporter.

Assay [11] concerns the target PH_(Boi1)CRU (S. cerevisiae) (UniProt P38041). Briefly: split reporter.
Assay [12] has as its target 6xHIS-SH3_(Boi1) (S. cerevisiae) (UniProt P38041). Briefly: SEC.

Results are given in words; binding and its absence hold for the method and conditions named. For some of these results: In cells and extracts the contact can be indirect. Some results given as binding are weak or reduced against the parent protein; the word gives no strength. For some of these results: Sequences can lack the tags named with a protein.

For the molecule “6xHis-Cdc42_(G12V) (from UniProt P19073 1-191)”, the binding entry in [1] is given as “no binding”; in assay [2], “binds”; in assay [3] it was “no binding”; in assay [4] it was “binds”.

On to “6xHis-Exo84_(121-141)-AGT (from UniProt P38261 121-141) (peptide)”, for which the binding result in [5] is given as “no binding”; in [6], “binds”; in assay [7] it was “no binding”.

Turning to 6xHis-Sec1p (from UniProt P30619 1-724), the binding result is “no binding” in [8]; “binds” in [2]; “binds” in assay [3]; “binds” in [9]; “binds” in [4].

For “6xHis-Sec3_(481-521)-AGT (from UniProt P33332 481-521) (peptide)”, the binding result was “no binding” in assay [10], “binds” in assay [6] and “no binding” in [7].

As for “Nub-Boi1_(70-980) (from UniProt P38041 70-980) (domain or fragment)”, in the assay with Exo84CRU (S. cerevisiae), the binding entry is “no binding”.

B1: Nub-Bud6p (protein, UniProt P41697 1-788)
chain: MKMAVDDPTYGTPKIKRTASSSSSIETTVTKLLMSTKHLLQVLTQWSKGTTSGRLVSDAYVQLGNDFKVVSKFFMHAKVDMSDVGDVPMALRRVLEVTLREPPSDETLNKHLPKIREIIVTLLDKLKVKQAILKNMQQEHRISVKSHHQQNPSFTSNLSLGSEGTREGTPLSSRKSSIVRDQRQSDSVENSYGEKVNSTSTGTPSAQSAEATLTKPRTNIKQNLKSNNAPNASDDDDALSQLKKGTNLQRRASKRYSAYHMAKLTNQSTTEAAAAAGLMTTPSPSMLHLEETVRKSKLYGNNNNDDDRNINSAENKGKSIDDVSKASPLAKTPLPIENVRASPRRLSSVVTTSPDKAMNGTCPVFLRIGDKTKKCHVQLPTTKNALRLLFIERFAYSPGANSFPDIYIMDPQYGVFYELEELNLLDIKEGFVIELKLEENPNNTIKEFIDTVKMEISNSQNDIIRHLKEMSFGSAISGKQTEVLPQPGLEANKHDLVGQNKKDDDKTIKDIQYELGKIKQVHNINRSNINETIFNILRKVDNFKSLSFSAKNSSNRMYMEKSQTELGDLSDTLLSKVDDLQDVIEIMRKDVAERRSQPAKKKLETVSKDLENAQADVLKLQEFIDTEKPHWKKTWEAELDKVCEEQQFLTLQEELILDLKEDLGKALETFDLIKLCCEEQEKNPSRSKSNPILPIMRPGTFNQVREQVMVAVQSLNPDHDSRVEAIDKAEKMWEMERKLKASNEFDDELENFVGNSNLKKSGGFEEVERIRKQKDEANLRAYFGPGFT
With B1, the binding result is reported as “binds” in the assay with Boi1CRU (S. cerevisiae) and “no binding” in assay [11].

B2: 6xHIS-SH3_(Boi1) (domain or fragment, UniProt P38041 13-77)
chain: T1 sequence
B2: in assay [12], the binding entry is listed as “no binding”.
